Test results published in US20200054011A1, “QUINAZOLINEDIONE-6-CARBONYL DERIVATIVES AND THEIR USE AS HERBICIDES” (Bayer CropScience Aktiengesellschaft, priority 2018, published 2020).
Some entries share one result that the patent states for a list of compounds.

Experiments:
Format in all cases: in vivo
Matricaria inodora = assay: Pre-emergence herbicidal action against harmful plants; settings: application rate of 0.32 kg or less per hectare, scored visually after 3 weeks, 100% = plants have died, 0% = like control plants
Setaria viridis = assay: as above; settings: application rate of 0.32 kg or less per hectare, scored visually after 3 weeks, 100% = plants have died, 0% = like control plants
Abuthilon theophrasti = assay: Post-emergence herbicidal action against harmful plants; settings: application rate of 0.08 kg or less per hectare, assessed visually after about 3 weeks, 100% = plants have died, 0% = like control plants
Amaranthus retroflexus = assay: as above; settings: application rate of 0.08 kg or less per hectare, assessed visually after about 3 weeks, 100% = plants have died, 0% = like control plants

Cc1ccccc1-n1c(=O)c2c(C)c(C(=O)C3C(=O)C(C)(C)C(=O)C(C)(C)C3=O)ccc2n(C)c1=O [3-2]
at least 80%: efficacy (herbicidal activity in percent) against Matricaria inodora (Matricaria inodora) | efficacy (herbicidal activity in percent) against Setaria viridis (Setaria viridis) | efficacy (herbicidal action in percent) against Abuthilon theophrasti (Abuthilon theophrasti) | efficacy (herbicidal action in percent) against Amaranthus retroflexus (Amaranthus retroflexus)

Cc1ccccc1-n1c(=O)c2c(C)c(C(=O)c3cnoc3C3CC3)ccc2n(C)c1=O [4-2]
at least 80%: efficacy (herbicidal activity in percent) against Matricaria inodora (Matricaria inodora) | efficacy (herbicidal activity in percent) against Setaria viridis (Setaria viridis) | efficacy (herbicidal action in percent) against Abuthilon theophrasti (Abuthilon theophrasti) | efficacy (herbicidal action in percent) against Amaranthus retroflexus (Amaranthus retroflexus)

COc1ccccc1-n1c(=O)c2c(C)c(C(=O)c3cnn(C)c3O)ccc2n(C)c1=O [1-8]
at least 80%: efficacy (herbicidal activity in percent) against Matricaria inodora (Matricaria inodora) | efficacy (herbicidal activity in percent) against Setaria viridis (Setaria viridis) | efficacy (herbicidal action in percent) against Abuthilon theophrasti (Abuthilon theophrasti) | efficacy (herbicidal action in percent) against Amaranthus retroflexus (Amaranthus retroflexus)

CCc1ccccc1-n1c(=O)c2c(C)c(C(=O)C3C(=O)C4CCC(C4)C3=O)ccc2n(C)c1=O (centres unmarked) [2-4]
at least 80%: efficacy (herbicidal activity in percent) against Matricaria inodora (Matricaria inodora) | efficacy (herbicidal activity in percent) against Setaria viridis (Setaria viridis) | efficacy (herbicidal action in percent) against Abuthilon theophrasti (Abuthilon theophrasti) | efficacy (herbicidal action in percent) against Amaranthus retroflexus (Amaranthus retroflexus)

COc1ccccc1-n1c(=O)c2c(C)c(C(=O)C3C(=O)C4CCC(C4)C3=O)ccc2n(C)c1=O (centres unmarked) [2-7]
at least 80%: efficacy (herbicidal activity in percent) against Matricaria inodora (Matricaria inodora) | efficacy (herbicidal activity in percent) against Setaria viridis (Setaria viridis) | efficacy (herbicidal action in percent) against Abuthilon theophrasti (Abuthilon theophrasti) | efficacy (herbicidal action in percent) against Amaranthus retroflexus (Amaranthus retroflexus)

Cc1ccccc1-n1c(=O)c2c(C)c(C(=O)C(C#N)C(=O)C3CC3)ccc2n(C)c1=O (centres unmarked) [5-2]
at least 80%: efficacy (herbicidal activity in percent) against Matricaria inodora (Matricaria inodora) | efficacy (herbicidal activity in percent) against Setaria viridis (Setaria viridis) | efficacy (herbicidal action in percent) against Abuthilon theophrasti (Abuthilon theophrasti) | efficacy (herbicidal action in percent) against Amaranthus retroflexus (Amaranthus retroflexus)

Cc1cc(F)ccc1-n1c(=O)c2c(C)c(C(=O)C3C(=O)C4CCC(C4)C3=O)ccc2n(C)c1=O (centres unmarked) [2-3]
at least 80%: efficacy (herbicidal activity in percent) against Matricaria inodora (Matricaria inodora) | efficacy (herbicidal activity in percent) against Setaria viridis (Setaria viridis) | efficacy (herbicidal action in percent) against Abuthilon theophrasti (Abuthilon theophrasti) | efficacy (herbicidal action in percent) against Amaranthus retroflexus (Amaranthus retroflexus)

Cc1ccccc1-n1c(=O)c2c(C)c(C(=O)c3c(C)nn(C)c3O)ccc2n(C)c1=O [1-3]
at least 80%: efficacy (herbicidal activity in percent) against Matricaria inodora (Matricaria inodora) | efficacy (herbicidal activity in percent) against Setaria viridis (Setaria viridis) | efficacy (herbicidal action in percent) against Abuthilon theophrasti (Abuthilon theophrasti) | efficacy (herbicidal action in percent) against Amaranthus retroflexus (Amaranthus retroflexus)

Cc1cc(F)ccc1-n1c(=O)c2c(C)c(C(=O)C3C(=O)C(C)(C)C(=O)C(C)(C)C3=O)ccc2n(C)c1=O [3-3]
at least 80%: efficacy (herbicidal activity in percent) against Matricaria inodora (Matricaria inodora) | efficacy (herbicidal activity in percent) against Setaria viridis (Setaria viridis) | efficacy (herbicidal action in percent) against Abuthilon theophrasti (Abuthilon theophrasti) | efficacy (herbicidal action in percent) against Amaranthus retroflexus (Amaranthus retroflexus)

Cc1ccccc1-n1c(=O)c2c(C)c(C(=O)c3cnn(C)c3O)ccc2n(C)c1=O [1-2]
at least 80%: efficacy (herbicidal activity in percent) against Matricaria inodora (Matricaria inodora) | efficacy (herbicidal activity in percent) against Setaria viridis (Setaria viridis) | efficacy (herbicidal action in percent) against Abuthilon theophrasti (Abuthilon theophrasti) | efficacy (herbicidal action in percent) against Amaranthus retroflexus (Amaranthus retroflexus)

Cc1cc(F)ccc1-n1c(=O)c2c(C)c(C(=O)c3cnn(C)c3O)ccc2n(C)c1=O [1-4]
at least 80%: efficacy (herbicidal activity in percent) against Matricaria inodora (Matricaria inodora) | efficacy (herbicidal activity in percent) against Setaria viridis (Setaria viridis) | efficacy (herbicidal action in percent) against Abuthilon theophrasti (Abuthilon theophrasti) | efficacy (herbicidal action in percent) against Amaranthus retroflexus (Amaranthus retroflexus)

CCc1ccccc1-n1c(=O)c2c(C)c(C(=O)C3C(=O)C(C)(C)C(=O)C(C)(C)C3=O)ccc2n(C)c1=O [3-4]
at least 80%: efficacy (herbicidal activity in percent) against Matricaria inodora (Matricaria inodora) | efficacy (herbicidal activity in percent) against Setaria viridis (Setaria viridis) | efficacy (herbicidal action in percent) against Abuthilon theophrasti (Abuthilon theophrasti) | efficacy (herbicidal action in percent) against Amaranthus retroflexus (Amaranthus retroflexus)

Cc1ccccc1-n1c(=O)c2c(C)c(C(=O)C3C(=O)C4CCC(C4)C3=O)ccc2n(C)c1=O (centres unmarked) [2-2]
at least 80%: efficacy (herbicidal activity in percent) against Matricaria inodora (Matricaria inodora) | efficacy (herbicidal activity in percent) against Setaria viridis (Setaria viridis) | efficacy (herbicidal action in percent) against Abuthilon theophrasti (Abuthilon theophrasti) | efficacy (herbicidal action in percent) against Amaranthus retroflexus (Amaranthus retroflexus)

CCn1ncc(C(=O)c2ccc3c(c2C)c(=O)n(-c2ccccc2C)c(=O)n3C)c1O [1-19]
at least 80%: efficacy (herbicidal activity in percent) against Matricaria inodora (Matricaria inodora) | efficacy (herbicidal activity in percent) against Setaria viridis (Setaria viridis) | efficacy (herbicidal action in percent) against Abuthilon theophrasti (Abuthilon theophrasti) | efficacy (herbicidal action in percent) against Amaranthus retroflexus (Amaranthus retroflexus)
